# The other results are listed elsewhere or left out.
# Target: T1, OsSMF1 (Oryza sativa, UniProt Q6ZLB0 1-436)
# T1 sequence: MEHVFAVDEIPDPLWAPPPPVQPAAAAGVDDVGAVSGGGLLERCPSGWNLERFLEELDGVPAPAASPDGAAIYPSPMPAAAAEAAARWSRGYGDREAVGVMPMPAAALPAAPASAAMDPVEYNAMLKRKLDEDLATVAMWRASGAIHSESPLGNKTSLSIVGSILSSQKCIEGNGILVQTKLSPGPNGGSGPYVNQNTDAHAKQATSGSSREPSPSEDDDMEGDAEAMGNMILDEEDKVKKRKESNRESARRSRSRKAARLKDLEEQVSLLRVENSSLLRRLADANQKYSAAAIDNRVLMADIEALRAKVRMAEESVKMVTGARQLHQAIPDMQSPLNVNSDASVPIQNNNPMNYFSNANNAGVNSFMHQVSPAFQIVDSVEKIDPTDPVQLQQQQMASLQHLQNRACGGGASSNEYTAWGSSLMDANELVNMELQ
# Assay: protein-binding microarray (RPBM); PBS, 2% BSA, 51.3 ng/ul salmon testes DNA, 50 uM zinc acetate, 200 nM TF, 25 C, 1 h; high values mean tight binding
# Conditions: protein: recombinant; tags: N-terminal polyhistidine and DsRed monomer fusion (pET32a); chain copies: 2; label: CyDye5-dUTP incorporated in the synthesized complementary strand; 3' TTTTT single-stranded linker to array surface; dsDNA, one strand shown
# In short: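 Using Ni–NTA, transcription factors fused N-terminally to polyhistidine and DsRed were purified after expression in E. coli BL21-CodonPlus. These were incubated at 200 nM with a blocked, double-stranded custom Agilent array for 1 h at 25 °C in a buffer containing 50 µM zinc acetate, and the array was washed. The binding signal is per-feature fluorescence intensity (arbitrary units) on an Axon 4000B scanner.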
row,Sequence,binding signal
1,AGCGCGGTCCAGCTGGACCTAGCAGGTGGGCAAAACAGTACGGAGTCACCTAGTGCAG,3620 fluorescence intensity (a.u.)
2,CTGGGCCTCCCCACCGACACGCTGGGCTGGCCCGGCACGACGGAGTCACCTAGTGCAG,28200 fluorescence intensity (a.u.)
3,AGGGCCCCACACGTCAGTGACTTATTCGTCGGATAAGGACCGGAGTCACCTAGTGCAG,5800 fluorescence intensity (a.u.)
4,GGGCCCCGCAGGCGCAGGCGCAGCGGTACGCCGTCGTCGGCGGAGTCACCTAGTGCAG,54200 fluorescence intensity (a.u.)
5,CCAATGCACTTTAAGCCTCATCTGAATCTTTTGATAGGCCCGGAGTCACCTAGTGCAG,25700 fluorescence intensity (a.u.)
6,GTGGTAGAAGCTATATTGTCACTGTGGTCGTCATTGTAGTCGGAGTCACCTAGTGCAG,3650 fluorescence intensity (a.u.)
7,CGTGGCAATATTGTTATTGCACATGACTATATTATGGTCACGGAGTCACCTAGTGCAG,4390 fluorescence intensity (a.u.)
8,AAGTTATCACGATGTTCACGATGCCGGAGGATATCATTTCCGGAGTCACCTAGTGCAG,3140 fluorescence intensity (a.u.)
9,GTGGGGAGGGGAGGTGGGTCGCCGAAAGCTTGGCTGAGATCGGAGTCACCTAGTGCAG,7750 fluorescence intensity (a.u.)
10,GTGGCTGACAGTGCTGGTTGCTGGTTCCCTTCTTCCTCCGCGGAGTCACCTAGTGCAG,4170 fluorescence intensity (a.u.)
11,GCCGGCCATGCCAGCCGCGCGATCGACGTGCCACTGAACGCGGAGTCACCTAGTGCAG,4420 fluorescence intensity (a.u.)
12,AAGCCTCGTAGGTGTTCGTCCAGCCGCGACACGACACGACCGGAGTCACCTAGTGCAG,3300 fluorescence intensity (a.u.)
13,GATCGAGTCCAGCTGACGCACTCAAACAGACGAAATCAACCGGAGTCACCTAGTGCAG,3580 fluorescence intensity (a.u.)
14,GGGGTGAAGAAGAAGGGTAAGGTGGCTGACATATGGGACCCGGAGTCACCTAGTGCAG,3410 fluorescence intensity (a.u.)
15,GTGTGCTTTCCTGCTGCGTGTGGTGCTATTATTGCTAGTCCGGAGTCACCTAGTGCAG,3140 fluorescence intensity (a.u.)
16,CGGGTGGTTTGCATCAGAGGCCACGTCGGACTACACGATCCGGAGTCACCTAGTGCAG,11300 fluorescence intensity (a.u.)
17,TACGCCCACGGCCCACCGACACGTGGGCCCCACGACCCAGCGGAGTCACCTAGTGCAG,9700 fluorescence intensity (a.u.)
18,CCTCTCCTCGTCCGCCGGCGATGCGCCGGCGCCGGCGCAGCGGAGTCACCTAGTGCAG,3200 fluorescence intensity (a.u.)
19,TCATTTATCTTTCTTCCATGTAAGCAAATTTGTCTAGGTGCGGAGTCACCTAGTGCAG,3280 fluorescence intensity (a.u.)
20,CTCTTCCATTTGTTCCATTGTCATGCTTGCGTAATCTCAGCGGAGTCACCTAGTGCAG,3140 fluorescence intensity (a.u.)
21,AAGTCGTTTGTACGATGGCATTTCTTAGAACTCATATTTGCGGAGTCACCTAGTGCAG,4970 fluorescence intensity (a.u.)

# 7 entries from above, as tab-separated lines:
row	Sequence	binding signal
8	AAGTTATCACGATGTTCACGATGCCGGAGGATATCATTTCCGGAGTCACCTAGTGCAG	3140 fluorescence intensity (a.u.)
9	GTGGGGAGGGGAGGTGGGTCGCCGAAAGCTTGGCTGAGATCGGAGTCACCTAGTGCAG	7750 fluorescence intensity (a.u.)
10	GTGGCTGACAGTGCTGGTTGCTGGTTCCCTTCTTCCTCCGCGGAGTCACCTAGTGCAG	4170 fluorescence intensity (a.u.)
11	GCCGGCCATGCCAGCCGCGCGATCGACGTGCCACTGAACGCGGAGTCACCTAGTGCAG	4420 fluorescence intensity (a.u.)
12	AAGCCTCGTAGGTGTTCGTCCAGCCGCGACACGACACGACCGGAGTCACCTAGTGCAG	3300 fluorescence intensity (a.u.)
13	GATCGAGTCCAGCTGACGCACTCAAACAGACGAAATCAACCGGAGTCACCTAGTGCAG	3580 fluorescence intensity (a.u.)
14	GGGGTGAAGAAGAAGGGTAAGGTGGCTGACATATGGGACCCGGAGTCACCTAGTGCAG	3410 fluorescence intensity (a.u.)

# (next part)

row,Sequence,binding signal
1,TTCACCTTGTGTTGCCACGTAGGCAAAATTGACAAAGAGACGGAGTCACCTAGTGCAG,7720 fluorescence intensity (a.u.)
2,ACAAAATTTATTTCCAGGTGGCGTCTCCTCATTGGCCAGCCGGAGTCACCTAGTGCAG,4370 fluorescence intensity (a.u.)
3,CTGTCAACAATCATCGAATCATAGCGCCAACACACCCACCCGGAGTCACCTAGTGCAG,3360 fluorescence intensity (a.u.)
4,AAGGATTAACAAACCAGCTATGCTCTCATTGGATGTACTACGGAGTCACCTAGTGCAG,3480 fluorescence intensity (a.u.)
5,ACCTGCCGCCGCTGCCGCATCCGCCGCCACCACGACCAACCGGAGTCACCTAGTGCAG,3860 fluorescence intensity (a.u.)
6,CCCAAATCCCACTTCCCACAGCCAAACTTTCATACAAACGCGGAGTCACCTAGTGCAG,21200 fluorescence intensity (a.u.)
7,ATTCCCTCGTTTTGTGTATGTCGTTCAAAGAGTCATCAAACGGAGTCACCTAGTGCAG,3540 fluorescence intensity (a.u.)
8,TTCTTCGGTTATTATACTGTAATAAAATGTCAAGCTGGCGCGGAGTCACCTAGTGCAG,4000 fluorescence intensity (a.u.)
9,TCACCAAAATCAACATGAACTGATCAGTTCTTGTCCAGTACGGAGTCACCTAGTGCAG,5230 fluorescence intensity (a.u.)
10,GCGGGCAGGCGGCGCCAGCCGTGACGCGGGTGGTCCGGGTCGGAGTCACCTAGTGCAG,4420 fluorescence intensity (a.u.)
11,CCTCGATTCCTCGTGATCTCGGGATCGTCCGCGTGGATATCGGAGTCACCTAGTGCAG,3330 fluorescence intensity (a.u.)
12,CGGACGGCGAGAAACGCATTGTCACTGTCACATCGTCGTCCGGAGTCACCTAGTGCAG,3270 fluorescence intensity (a.u.)
13,GGATGAACTGTCAGCATTTTGATTAGTTTTAAAATGTCAGCGGAGTCACCTAGTGCAG,4290 fluorescence intensity (a.u.)
14,CCCAAATTTAGTTGGAGACACGTAACCCGCTCAAAGCGCCCGGAGTCACCTAGTGCAG,7400 fluorescence intensity (a.u.)
15,ATGCTGCGATGCAAGTGACATCCTGCCAGCGCCAGGATTTCGGAGTCACCTAGTGCAG,3340 fluorescence intensity (a.u.)
16,GGCACCGCGCGGAAGGGGAAGAGGCGGCGACGAGAGTATTCGGAGTCACCTAGTGCAG,27500 fluorescence intensity (a.u.)
17,TGCTGGGAAGCTCATGTCGAAAAGATAAACGTGAACTGAACGGAGTCACCTAGTGCAG,14100 fluorescence intensity (a.u.)
18,TCGTCGAGCTGGGCCGAGCGGCGCGGCTCGTGCGCGACGGCGGAGTCACCTAGTGCAG,3350 fluorescence intensity (a.u.)
19,CGCATCCCGGCCCATCCGCCTCGTCAGCGGCGGCGCACCACGGAGTCACCTAGTGCAG,10800 fluorescence intensity (a.u.)
20,TTGACAAATTTTCTAAGTTTGCTCATTTCATTCCTTTAGCCGGAGTCACCTAGTGCAG,3300 fluorescence intensity (a.u.)
21,TATGAGTATCCTATATACATATATATACATATATATATACCGGAGTCACCTAGTGCAG,27300 fluorescence intensity (a.u.)

# Reference: PMC7819943, “Rice protein-binding microarrays: a tool to detect cis-acting elements near promoter regions in rice”
